Source: patent US9345764B2, “Moesin modulators and uses thereof” (SHANGHAI KEXIN BIOTECH CO., LTD., priority 2010, dated 2016)

Test system: HPMEC cells
Experiment: Cytoskeleton morphology under microscope
Assay type: cell-based, human
Conditions: agent alone

Substance: TNF-alpha
- nuclei: No apparent change in nuclei
- cytoskeleton structure (up to 36 hours incubation): no apparent change in structure, until after 36 hrs, when partial disruption of F-actin structure was observed
